Reference: PubChem BioAssay AID1259308 (NCATS, 2017)
Screen: 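Candidate targets for better recombinant protein yield in mammalian cells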 (primary screen). Cells: human HEK293 embryonic kidney cells stably expressing firefly luciferase (HEK-CMV-Luc2-Hygro). Reagent: single siRNA against human genes, 0.8 pmol siRNA per well. Time to read-out: 72 h. Measurement: 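Luciferase light (ONE-Glo) measured on one replicate plate set and viability (CellTiter-Glo) on the other, scaled to a negative control siRNA, with robust z-scores and luciferase per cell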. Direction: total luciferase, z-score and total luciferase, % of control: higher = more reporter protein produced; luciferase per cell, z-score: higher = more reporter output per viable cell; viable cells, % of control: higher = more viable cells. Hit rule: 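An siRNA counts as active if its total luciferase robust z-score exceeds 3; genes with two or more such siRNAs out of three were retested with fresh siRNAs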. Meaning of the calls: active = raised luciferase; inactive = no rise.
Here is one part, drawn at random, of about 59,000 reagents. About 1,510 of all reagents (2.6%) were called active. 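Calls use total luciferase alone and ignore viability, so some active siRNAs may act by altering cell number.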 A number with no mark means an inactive call. Reagents against one gene are numbered here. No sequences are given here.

gene | siRNA no. | total luciferase, z-score | total luciferase, % of control | luciferase per cell, z-score | viable cells, % of control
LTBP4 (latent transforming growth factor beta binding protein 4) | 1 | 0.68 | 95.4 | 0.618 | 90.6
LTBP4 (latent transforming growth factor beta binding protein 4) | 2 | -0.263 | 76.7 | -0.554 | 99.1
LTBP4 (latent transforming growth factor beta binding protein 4) | 3 | 0.167 | 85.2 | -0.0573 | 96.7
FAM185A (family with sequence similarity 185 member A) | 1 | 0.134 | 84.6 | 0.44 | 84.2
FAM185A (family with sequence similarity 185 member A) | 2 | 0.173 | 85.3 | -0.557 | 110
FAM185A (family with sequence similarity 185 member A) | 3 | -0.0517 | 80.9 | 0.0458 | 89.3
CCR9 (C-C motif chemokine receptor 9) | 1 | 0.727 | 96.3 | 1.9 | 65.3
CCR9 (C-C motif chemokine receptor 9) | 2 | 0.662 | 95 | 1.67 | 68.4
CCR9 (C-C motif chemokine receptor 9) | 3 | -0.0793 | 80.3 | -0.2 | 94.6
ACY1 (aminoacylase 1) | 1 | -1.04 | 61.1 | -1.18 | 93.3
ACY1 (aminoacylase 1) | 2 | 1.16 | 105 | 0.708 | 97.3
ACY1 (aminoacylase 1) | 3 | -0.453 | 72.9 | -0.905 | 103
PRPF4 (pre-mRNA splicing tri-snRNP complex factor PRPF4) | 1 | 0.695 | 95.7 | 0.796 | 86.7
PRPF4 (pre-mRNA splicing tri-snRNP complex factor PRPF4) | 2 | 1.89 | 119 | 2.63 | 66.8
PRPF4 (pre-mRNA splicing tri-snRNP complex factor PRPF4) | 3 | 0.631 | 94.4 | 1.18 | 77.3
UBR7 (ubiquitin protein ligase E3 component n-recognin 7) | 1 | 0.281 | 87.5 | 0.129 | 94.5
UBR7 (ubiquitin protein ligase E3 component n-recognin 7) | 2 | 0.296 | 87.8 | -0.154 | 102
UBR7 (ubiquitin protein ligase E3 component n-recognin 7) | 3 | 0.176 | 85.4 | 0.314 | 87.9
CUL7 (cullin 7) | 1 | 2.34 | 128 | 2.21 | 80.1
CUL7 (cullin 7) | 2 | 0.904 | 99.9 | 0.647 | 94.1
CUL7 (cullin 7) | 3 | 1.03 | 102 | 1.64 | 74.3
NTHL1 (nth like DNA glycosylase 1) | 1 | 0.0727 | 83.3 | -0.573 | 108
NTHL1 (nth like DNA glycosylase 1) | 2 | 2.51 | 132 | 2.01 | 86.8
NTHL1 (nth like DNA glycosylase 1) | 3 | 0.411 | 90.1 | 0.929 | 78.8
CUBN (cubilin) | 1 | 0.393 | 89.7 | 0.624 | 85
CUBN (cubilin) | 2 | -0.311 | 75.7 | -0.253 | 90.4
CUBN (cubilin) | 3 | 1.8 | 118 | 1.62 | 85.9
NFAM1 (NFAT activating protein with ITAM motif 1) | 1 | -0.127 | 79.4 | 0.14 | 85.5
NFAM1 (NFAT activating protein with ITAM motif 1) | 2 | 2.5 | 132 | 3.17 | 63.9
NFAM1 (NFAT activating protein with ITAM motif 1) | 3 | -0.746 | 67 | -1.43 | 109
STMN3 (stathmin 3) | 1 | 0.148 | 84.8 | -0.105 | 97.5
STMN3 (stathmin 3) | 2 | 3.12 (active) | 144 | 2.19 | 90.3
STMN3 (stathmin 3) | 3 | 2.36 | 129 | 1.69 | 92.3

Continued, starting with the last 8 of the part before.
gene | siRNA no. | total luciferase, z-score | total luciferase, % of control | luciferase per cell, z-score | viable cells, % of control
CUBN (cubilin) | 2 | -0.311 | 75.7 | -0.253 | 90.4
CUBN (cubilin) | 3 | 1.8 | 118 | 1.62 | 85.9
NFAM1 (NFAT activating protein with ITAM motif 1) | 1 | -0.127 | 79.4 | 0.14 | 85.5
NFAM1 (NFAT activating protein with ITAM motif 1) | 2 | 2.5 | 132 | 3.17 | 63.9
NFAM1 (NFAT activating protein with ITAM motif 1) | 3 | -0.746 | 67 | -1.43 | 109
STMN3 (stathmin 3) | 1 | 0.148 | 84.8 | -0.105 | 97.5
STMN3 (stathmin 3) | 2 | 3.12 (active) | 144 | 2.19 | 90.3
STMN3 (stathmin 3) | 3 | 2.36 | 129 | 1.69 | 92.3
OR10Z1 (olfactory receptor family 10 subfamily Z member 1) | 1 | 0.747 | 96.7 | 0.547 | 93.6
OR10Z1 (olfactory receptor family 10 subfamily Z member 1) | 2 | -0.754 | 66.9 | -1.71 | 117
OR10Z1 (olfactory receptor family 10 subfamily Z member 1) | 3 | -0.656 | 68.8 | -0.966 | 99.2
NMI (N-myc and STAT interactor) | 1 | -0.151 | 78.9 | 0.751 | 72.3
NMI (N-myc and STAT interactor) | 2 | 0.644 | 94.7 | 1.12 | 78.8
NMI (N-myc and STAT interactor) | 3 | 2.1 | 124 | 1.36 | 96.5
GPALPP1 (GPALPP motifs containing 1) | 1 | 2.03 | 122 | 1.05 | 104
GPALPP1 (GPALPP motifs containing 1) | 2 | 1.38 | 109 | 1.01 | 93.7
GPALPP1 (GPALPP motifs containing 1) | 3 | -0.637 | 69.2 | -0.349 | 84.8
FAM238C (family with sequence similarity 238 member C) | 1 | 1.66 | 115 | 2.04 | 75.1
FAM238C (family with sequence similarity 238 member C) | 2 | -0.0541 | 80.8 | 1.26 | 64.8
FAM238C (family with sequence similarity 238 member C) | 3 | -0.152 | 78.9 | 0.209 | 83.4
COL22A1 (collagen type XXII alpha 1 chain) | 1 | 0.477 | 91.4 | -0.245 | 109
COL22A1 (collagen type XXII alpha 1 chain) | 2 | -1.13 | 59.3 | -0.134 | 68.7
COL22A1 (collagen type XXII alpha 1 chain) | 3 | 3.02 (active) | 142 | 2.37 | 85.1
CDO1 (cysteine dioxygenase type 1) | 1 | -0.515 | 71.6 | -0.783 | 98.4
CDO1 (cysteine dioxygenase type 1) | 2 | 0.623 | 94.3 | 0.722 | 87.1
CDO1 (cysteine dioxygenase type 1) | 3 | -0.304 | 75.8 | 0.104 | 82.5
MUC6 (mucin 6, oligomeric mucus/gel-forming (gene/pseudogene)) | 1 | -0.328 | 75.4 | 0.595 | 72
MUC6 (mucin 6, oligomeric mucus/gel-forming (gene/pseudogene)) | 2 | 0.869 | 99.2 | 0.216 | 105
MUC6 (mucin 6, oligomeric mucus/gel-forming (gene/pseudogene)) | 3 | -0.173 | 78.4 | -0.503 | 100
PSMC6 (proteasome 26S subunit, ATPase 6) | 1 | 0.305 | 88 | 2.41 | 52.1
PSMC6 (proteasome 26S subunit, ATPase 6) | 2 | -0.51 | 71.7 | 3 | 36.4
PSMC6 (proteasome 26S subunit, ATPase 6) | 3 | -2.95 | 23.3 | 3.51 | 10.3
